This data set can be described thus: soluble on expression in E. coli; label from the status in PepcDB or PDB records.

We go through eight sequences from the DeepSol protein solubility set.

As to “MAGDPMRSDMIKKGDHQAPARSLLHATGALKSPTDMNKPFVAICNSYIDIVPGHVHLRELADIAKEAIREAGAIPFEFNTIGVDDGIAMGHIGMRYSLPSREIIADAAETVINAHWFDGVFYIPNCDKITPGMILAAMRTNVPAIFCSGGPMKAGLSAHGKALTLSSMFEAVGAFKEGSISKEEFLDMEQNACPTCGSCAGMFTANSMNCLMEVLGLALPYNGTALAVSDQRREMIRQAAFKLVENIKNDLKPRDIVTREAIDDAFALDMAMGGSTNTVLHTLAIANEAGIDYDLERINAIAKRTPYLSKIAPSSSYSMHDVHEAGGVPAIINELMKKDGTLHPDRITVTGKTLRENNEGKEIKNFDVIHPLDAPYDAQGGLSILFGNIAPKGAVIKVGGVDPSIKTFTGKAICFNSHDEAVEAIDNRTVRAGHVVVIRYEGPKGGPGMPEMLAPTSSIVGRGLGKDVALITDGRFSGATRGIAVGHISPEAASGGPIALIEDGDEITIDLTNRTLNVNQPEDVLARRRESLTPFKAKVKTGYLARYTALVTSANTGGVMQVPENLILEHHHHHH”, the “soluble on expression in E. coli” value is “soluble”.

For “MGHHHHHHSHMSPAFRAMDVEPRAKGVLLEPFVHQVGGHSCVLRFNETTLCKPLVPREHQFYETLPAEMRKFTPQYKGVS”, the “soluble on expression in E. coli” value was “not soluble”.

As to “MNLERWTQAAREALAQAQVLAQRMKHQAIDLPHLWAVLLKDERSLAWRLLEKAGADPKALKELQERELARLPKVEGAEVGQYLTSRLSGALNRAEALMEELKDRYVAVDTLVLALAEATPGLPGLEALKGALKELRGGRTVQTEHAESTYNALEQYGIDLTRLAAEGKLDPVIGRDEEIRRVIQILLRRTKNNPVLIGEPGVGKTAIVEGLAQRIVKGDVPEGLKGKRIVSLQMGSLLAGAKYRGEFEERLKAVIQEVVQSQGEVILFIDELHTVVGAGKAEGAVDAGNMLKPALARGELRLIGATTLDEYREIEKDPALERRFQPVYVDEPTVEETISILRGLKEKYEVHHGVRISDSAIIAAATLSHRYITERRLPDKAIDLIDEAAARLRMALESAPEEIDALERKKLQLEIEREALKKEKDPDSQERLKAIEAEIAKLTEEIAKLRAEWEREREILRKLREAQHRLDEVRREIELAERQYDLNRAAELRYGELPKLEAEVEALSEKLRGARFVRLEVTEEDIAEIVSRWTGIPVSKLLEGEREKLLRLEEELHKRVVGQDEAIRAVADAIRRARAGLKDPNRPIGSFLFLGPTGVGKTELAKTLAATLFDTEEAMIRIDMTEYMEKHAVSRLIGAPPGYVGYEEGGQLTEAVRRRPYSVILFDEIEKAHPDVFNILLQILDDGRLTDSHGRTVDFRNTVIILTSNLGSPLILEGLQKGWPYERIRDEVFKVLQQHFRPEFLNRLDEIVVFRPLTKEQIRQIVEIQLSYLRARLAEKRISLELTEAAKDFLAERGYDPVFGARPLRRVIQRELETPLAQKILAGEVKEGDRVQVDVGPAGLVFAVPARVEA”, the “soluble on expression in E. coli” value is given as “soluble”.

With “MIMTESREVIDLDPPAETSQEQEDLFIVKVEEEDCTWMQEYNPPTFETFYQRFRHFQYHEASGPREALSQLRVLCCEWLRPELHTKEQILELLVLEQFLTILPEEFQPWVREHHPESGEEAVAVIENIQRELEERRQQIVACPDVLPRKMATPGAVQESCSPHPLTVDTQPEQAPQKPRLLEENALPVLQVPSLPLKDSQELTASLLSTGSQKLVKIEEVADVAVSFILEEWGHLDQSQKSLYRDDRKENYGSITSMGYESRDNMELIVKQISDDSESHWVAPEHTERSVPQDPDFAEVSDLKGMVQRWQVNPTVGKSRQNPSQKRDLDAITDISPKQSTHGERGHRCSDCGKFFLQASNFIQHRRIHTGEKPFKCGECGKSYNQRVHLTQHQRVHTGEKPYKCQVCGKAFRVSSHLVQHHSVHSGERPYGCNECGKNFGRHSHLIEHLKRHFREKSQRCSDKRSKNTKLSVKKKISEYSEADMELSGKTQRNVSQVQDFGEGCEFQGKLDRKQGIPMKEILGQPSSKRMNYSEVPYVHKKSSTGERPHKCNECGKSFIQSAHLIQHQRIHTGEKPFRCEECGKSYNQRVHLTQHQRVHTGEKPYTCPLCGKAFRVRSHLVQHQSVHSGERPFKCNECGKGFGRRSHLAGHLRLHSREKSHQCRECGEIFFQYVSLIEHQVLHMGQKNEKNGICEEAYSWNLTVIEDKKIELQEQPYQCDICGKAFGYSSDLIQHYRTHTAEKPYQCDICRENVGQCSHTKQHQKIYSSTKSHQCHECGRGFTLKSHLNQHQRIHTGEKPFQCKECGMNFSWSCSLFKHLRSHERTDPINTLSVEGSLL”, the “soluble on expression in E. coli” value is given as “soluble”.

Regarding “MQKKYITAIIGTTALSALASTHAQAATTHTVKSGESVWSISHKYGISIAKLKSLNGLTSNLIFPNQVLKVSGSSSRATSTNSGTVYTVKAGDSLSSIAAKYGTTYQKIMQLNGLNNYLIFPGQKLKVSGKATSSSRAKASGSSGRTATYTVKYGDSLSAIASKYGTTYQKIMQLNGLTNFFIYPGQKLKVPGGSSSSSSSNNTRSNGGYYSPTFNHQNLYTWGQCTWHVFNRRAEIGKGISTYWWNANNWDNASAADGYTIDYRPTVGSIAQTDAGYYGHVAFVERVNSDGSILVSEMNWSAAPGNMTYRTIPAYQVRNYKFIHLEHHHHHH”, the “soluble on expression in E. coli” value is reported as “not soluble”.

As to “MTESRISFEDVAVDFSWDQWQLLSPTQKSLYRDVMLENCSSLVFLGNQTTVWLLGFEHLRKSYTG”, the “soluble on expression in E. coli” value is listed as “not soluble”.

Consider “LRLEPKLMGMLEKDSPEQRLFLRRDQFPEVLVDALLVTEDRDFYQHDGVSPLAIGRAMVVNLKAGRTVQGGSTLTQQLAKNIFLSSDRTLWRKLREAYMALIIDYRYSKDRILEAYLNEVYLGQSGADAIHGFGLASRLYFGQPLQELRIDQLALLVGMVKGPSYYNPMRYA”, for which the “soluble on expression in E. coli” value is on record as “not soluble”.

On to “MRKKIIATVIGTSALAAVTWTNADAATTYKVKSGDSLWSIANKYNMSVAKLKSLNNLTSNVIFPNQSLKVSGSTSSSTSSNTSTGSTYTVKSGDTLSGIAAKYGTTYQKIMSLNGLSNFNIYPGQKLKVSGAASSSSSNTSGNTSSGSTTTYTVKSGDSLSAIAAKYGTTYQKIMSLNGLTNFNIYPGQKLKVSGKASTGGSGSSSTGSAGYKTPVFNHSNLYDWGQCTWHVFNKRAQIGKGISTYWWNANNWDTAAAADGYTIDRKATVGSILQSDMGYYGHVAFVESVNANGSITISEMNYSASPGIVTYRTIPASQVSSYVYIHLEHHHHHH”, for which the “soluble on expression in E. coli” value is recorded as “not soluble”.
